In US10266857B2, “Method for producing Nε-acyl-L-lysine” (AJINOMOTO CO., INC., priority 2015, dated 2019):

Assay: Optimum reaction temperature of the enzyme
Format: biochemical
Settings: 30° C. to 80° C., pH 7.0, 50 mM Tris-HCl buffer

B1: RmELA: amidohydrolase native to Rhodothermus marinus (NCBI; WP_012844854.1, SEQ ID NO: 1), Nε-acyl-L-lysine-specific aminoacylase (protein, listed as Rhodothermus marinus)
chain: MLLLPMQARGQADYVLVNGRLYTVDPAQPVAEAMAVRGDRILMVGTTAQLTAAYPDAPHIDLQGRAVVPGFIDAHAHLMGLGLSRLRADLTGTRSVEEILERLREFARQLPEGAWLLGRGWDQNDWPVKEFPTRQMLDEIFPERPVWLVRIDGHAAWANTAAIRRANPALLTEQIPDPEGGHIVRDAEGRLTGVFIDEAMDLIARHIPPPSEAELEEALRRAVAEANRFGLTGVHDAGASLKTIQGYRRAVDDGTLTLRLYVMVDGLGEAFDYFCEHGPLLDYGGRLTVRSVKFYIDGALGSRGAALLADYSDDPGNRGLLRHEPEVFADMVQRAMKCGFQVNTHAIGDRGVRVVLDAYEKALRTLGRTVGRHRVEHAQVVAPEDFARFAELDLIASMQPTHATSDMYWAEDRLGPERVRGAYAWRTFLEHGVRLAFGSDFPVELANPLLGFYAAITRQDAEGWPEGGWYPEQRLTREEALRAFTLDAAYAAFQEHELGSLTPGKYADFVVLSHDIMTVPPEQILQTRVLATFFGGRCVYHDPEAAGLCPASP
optimum reaction temperature: 75 °C | optimum reaction temperature (listed as protein having the amino acid sequence of SEQ ID NO: 1): about 75 °C
